Measurements published in the supplement of paper PMC10735217.
Where a name gives a salt, the structure may show the parent alone. The list shows a part of the results. Repeats in this data set agree poorly, so a single value says little.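 The human kidney-derived cells carry a stably integrated construct of eight TEAD-binding elements driving luciferase, read by luminescence in a drug-repurposing library screen. A compound counts as a hit when its signal is more than five robust Z scores above the plate mean.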

Tested on: HEK293A TEAD-LUC reporter
Assay: TEAD-luciferase reporter activity (YAP activation), robust Z score vs plate; higher = stronger YAP/TEAD activation
Conditions: 24 h

Row | Compound | TEAD-luciferase reporter activity (compound concentration: 200 nM) | TEAD-luciferase reporter activity (compound concentration: 2 uM) | TEAD-luciferase reporter activity (compound concentration: 10 uM)
1 | CCCCCCN1CCC(C(=O)N(C)CC)(c2ccccc2)CC1 | inactive: 0.642 | inactive: 0.91 | inactive: 1.42
2 | O=C(C1CCCN1C(=O)Cc1ccc(F)cc1)N1CCC(N2CCOCC2=O)CC1 (centres undefined) | inactive: -0.00746 |  | inactive: -1.35
3 | CN1CCN=C(c2ccccc2)c2cc(Cl)ccc21 [Medazepam] | inactive: 0.243 | inactive: -0.772 | inactive: 0.186
4 | CNCC(=O)c1ccccc1 | inactive: -1.31 | inactive: -1.77 | inactive: -1.13
5 | CC(NC(C)(C)C)C(=O)c1cccc(Cl)c1 (centres undefined) | inactive: -0.5 |  | inactive: -2.31
6 | CC(NC(C)(C)C)C(=O)c1cccc(Cl)c1 (centres undefined) [bupropion SR] |  | inactive: -0.868 | 
7 | CC12Cc3conc3CC1CCC1C2CCC2(C)C1CCC2(C)O (centres undefined) | inactive: -0.231 | inactive: -1.15 | inactive: -0.475
8 | C#CCN(C)[C@H](C)Cc1ccc(F)cc1 [parafluoro-selegiline] | inactive: -1.16 | inactive: 1.88 | inactive: 3.41
9 | Cc1cc(O)c2c(=O)c3c(O)cc(O)c4c5c(O)cc(O)c6c(=O)c7c(O)cc(C)c8c1c2c(c34)c(c78)c65 [hypericin] | inactive: -0.649 | inactive: -0.0221 | inactive: -0.78
10 | CCCCNC(=O)OCC#CI | inactive: -0.0611 | inactive: 0.129 | inactive: -0.801
11 | O=C1CN=C(c2ccccc2)c2cc(Cl)ccc2N1CC1CC1 [Prazepam] | active: 12.5 |  | active: 6.28
12 | CN1C(=O)CN=C(C2=CCCCC2)c2cc([N+](=O)[O-])ccc21 | inactive: -0.927 | inactive: -0.917 | inactive: 0.516
13 | CC(O)CCC(=O)c1ccoc1 (centres undefined) | inactive: -1.38 | inactive: 0.166 | inactive: 1.33
14 | O=C1c2ccccc2C(=O)C1C(=O)C(c1ccccc1)c1ccccc1 | inactive: -0.233 | inactive: -2.1 | inactive: 1.03
15 | O=NN1CCCCC1c1cccnc1 (centres undefined) | inactive: -0.493 | inactive: -0.553 | inactive: 2.49
16 | C[C@@H]1N=C(c2ccccc2Cl)c2cc([N+](=O)[O-])ccc2NC1=O | inactive: 2.48 | inactive: -0.597 | inactive: -0.378
17 | CN1C[C@H](C(=O)N(CCO)CCO)CC2c3cccc4[nH]cc(c34)C[C@H]21 (some centres undefined) | inactive: -0.796 | inactive: -0.619 | inactive: -1.16
18 | CN1C[C@@]2(C(=O)O)C(=O)[C@@](C(=O)O)(C1)[C@@H](c1ccccn1)N(C)[C@H]2c1ccccn1 | inactive: -0.81 | inactive: 0.0727 | inactive: -1.36
19 | CC(=O)N1C[C@@H](CCN2CC=C(c3c[nH]c4cc(Cl)ccc34)CC2)c2ccccc21 | inactive: -0.621 | inactive: -0.714 | active: 7.93

Row | Compound | TEAD-luciferase reporter activity (compound concentration: 200 nM) | TEAD-luciferase reporter activity (compound concentration: 2 uM) | TEAD-luciferase reporter activity (compound concentration: 10 uM)
20 | CN1[C@@H]2CC[C@H]1CC(OC(=O)[C@H](CO)c1ccccc1)C2 (some centres undefined) [Atropine sulfate] | inactive: -1.77 | inactive: 1.76 | inactive: 1.53
21 | CC1OC(OC2C(O)CC(OC3C(O)CC(OC4CCC5(C)C(CC[C@@H]6[C@@H]5CCC5(C)C(C7=CC(=O)OC7)C(O)CC65O)C4)OC3C)OC2C)CC(O)C1O (some centres undefined) | inactive: 0.25 | inactive: 0.934 | active: 24.8
22 | ClCCN(Cc1ccccc1)Cc1ccccc1 | inactive: -0.103 | inactive: 4.24 | inactive: -1.33
23 | CCC(C)C(C)(COC(N)=O)COC(N)=O (centres undefined) | inactive: -1.14 | inactive: -1.74 | inactive: 2.08
24 | CCN(C(C)=O)c1cccc(-c2ccnc3c(C#N)cnn23)c1 | inactive: -2.81 |  | inactive: 0.748
25 | CCN(C(C)=O)c1cccc(-c2ccnc3c(C#N)cnn23)c1 [zaleplon GR] |  | inactive: -1.23 | 
26 | CCCC1(CNS(=O)(=O)C(F)(F)F)CCN(S(=O)(=O)c2cc3ccccc3n2S(=O)(=O)c2ccccn2)CC1 | inactive: -1.19 | inactive: -0.73 | inactive: 2.87
27 | O=C1CCC2(CC1)OOC1(O2)C2CC3CC(C2)CC1C3 (centres undefined) | inactive: -1.09 | inactive: 0.494 | inactive: -0.773
28 | O=C1NCc2ccccc2CC12CCCCN2Cc1ccncc1 (centres undefined) | inactive: -0.131 |  | inactive: 2.67
29 | O=C(OCCN1CCCCC1)C(O)(c1ccccc1)c1ccccc1 | inactive: -0.258 | inactive: -1.54 | inactive: 0.0213
30 | CN(C)CCc1c[nH]c2ccc(O)cc12 | inactive: -0.986 | inactive: -1.05 | inactive: -0.00666
31 | OC1(c2ncccn2)CC2CCC(C1)N2C(c1ccccc1Cl)c1ccccc1Cl (centres undefined) | inactive: 0.00727 | inactive: 0.0255 | inactive: 1.01
32 | O=[N+]([O-])c1cc([As](=O)(O)O)ccc1O | inactive: -1.08 | inactive: -0.157 | inactive: 0.186
33 | Cc1ccc(C23CNCC2C3)cc1 (centres undefined) [Bicifadine] | inactive: -1.94 | inactive: -2.43 | inactive: 1.72
34 | O=c1c2ccccc2[se]n1CCn1[se]c2ccccc2c1=O [Ethaselen-1] | inactive: 0.649 | inactive: -0.116 | inactive: -0.445
35 | CCC(C)=O [Methyl Ethyl Ketone] |  | inactive: -0.892 | inactive: -0.171
36 | O=C(O)C(Cl)Cl | inactive: 0.646 | inactive: 0.0263 | inactive: 1.1
37 | CC(=O)NCC1CC(c2ccc(C3=CCNCC3)cc2)=NO1 (centres undefined) | inactive: -0.469 | inactive: 0.47 | inactive: 2.21
38 | c1cnc2c(c1)CNC2 | inactive: -0.142 | inactive: 0.823 | inactive: -0.244

Row | Compound | TEAD-luciferase reporter activity (compound concentration: 200 nM) | TEAD-luciferase reporter activity (compound concentration: 2 uM) | TEAD-luciferase reporter activity (compound concentration: 10 uM)
39 | CC(C)[C@@H](CN1CC[C@@](C)(c2cccc(O)c2)[C@@H](C)C1)NC(=O)[C@H]1Cc2ccc(O)cc2CN1 [JDTic dihydrochloride] | inactive: -1.17 | inactive: 1.69 | active: 7.87
40 | CCN(CC)C(=O)c1ccc(C2=CC3(CCNCC3)Oc3cccc(O)c32)cc1 | inactive: 0.414 | inactive: -1.32 | inactive: -2.49
41 | CC(Cc1ccccc1)NCCC(c1ccccc1)c1ccccc1 (centres undefined) | inactive: -1.16 | inactive: -0.412 | inactive: 0.698
42 | Cc1ccc(S(=O)(=O)N2CCCC2C(=O)N2CCC(N3CCCC3=O)CC2)cc1 (centres undefined) | inactive: -0.775 |  | inactive: 0.907
43 | C[C@]12CC[C@H]3[C@@H](CCC4=CC(=O)CC[C@@]43C)[C@@H]1CC[C@@H]2O[C@@H]1OC(CO)[C@@H](O)[C@H](O)C1O (some centres undefined) [Testosterone-Glucoside] | inactive: -1.22 | inactive: -2.05 | inactive: -0.949
44 | CN[C@]1(c2ccccc2)CC[C@]2(CC1)OCCc1c3cc(F)ccc3[nH]c12 [lexanopadol] | inactive: -0.32 | inactive: -0.482 | inactive: -0.465
45 | C[N+]1(CCC(C(N)=O)(c2ccccc2)c2ccccc2)CCCCC1 | inactive: -0.878 | inactive: -1.91 | inactive: -2.31
46 | C/C(=C\c1csc(C)n1)[C@@H]1C[C@@H]2O[C@]2(C)CCC[C@H](C)[C@H](O)[C@@H](C)C(=O)C(C)(C)[C@@H](O)CC(=O)O1 [Patupilone] | inactive: -0.465 | inactive: -0.901 | inactive: -0.995
47 | Cc1cc([C@@H]2CCCN2C)on1 | inactive: 0.97 | inactive: -1.51 | inactive: -1.22
48 | CC(C)C[C@H](NC(=O)[C@H](Cc1ccccc1)NC(=O)CNC(=O)[C@@H](C)NC(=O)[C@@H](N)Cc1ccc(O)cc1)C(=O)O [[D-Ala2]leucine-enkephalin] |  | inactive: -1.13 | inactive: 1.24
49 | CCCN1C[C@@H](C)[C@](OC(C)=O)(c2ccccc2)C[C@@H]1C | inactive: -0.879 | inactive: -0.288 | inactive: 1.39
50 | Clc1cncc(C2CN3CCC2CC3)n1 (centres undefined) | active: 5.76 | inactive: 1.16 | active: 5.09
51 | CC(=O)N(C)c1cc(-c2ccnc3c(C(=O)c4cccs4)cnn23)ccc1F [lorediplon] | inactive: 0.501 | inactive: -0.651 | inactive: -0.635
52 | COc1cc(CCNC(C)Cc2cc(OC)ccc2C#Cc2ccccc2)cc(OC)c1 (centres undefined) | inactive: 1.93 | inactive: 0.408 | inactive: 1.81
53 | CN1c2ccc(Cl)cc2C(c2ccccc2Cl)=NCC1CO (centres undefined) | inactive: 0.343 | inactive: -2.32 | inactive: 0.383
54 | FC(F)(F)c1ccc(C2=CCNCC2)cc1 | inactive: 0.765 | inactive: -1.78 | inactive: -1.42
55 | Cc1nc(-c2ccc(-c3ccc(C(=O)N4CCc5cc6c(cc54)C4(CCN(C)CC4)CO6)cc3)c(C)c2)no1 | inactive: -0.857 | inactive: -1.22 | inactive: -0.453
56 | C=C[C@@H]1C2=CCOC(=O)C2=CO[C@H]1O[C@@H]1O[C@H](CO)[C@@H](O)[C@H](O)[C@H]1O | inactive: -0.531 | inactive: 0.845 | inactive: 0.405
57 | CC(=O)O[C@H]1C[C@H](O[C@H]2[C@@H](O)C[C@H](O[C@H]3[C@@H](O)C[C@H](O[C@H]4CC[C@@]5(C)[C@H](CC[C@@H]6[C@@H]5C[C@@H](O)[C@]5(C)[C@@H](C7=CC(=O)OC7)CC[C@]65O)C4)O[C@@H]3C)O[C@@H]2C)O[C@H](C)[C@H]1O[C@@H]1O[C@H](CO)[C@@H](O)[C@H](O)[C@H]1O | active: 16.9 | inactive: -3.21 | active: 16.4

Full records from above:
CN1C(=O)CN=C(C2=CCCCC2)c2cc([N+](=O)[O-])ccc21 in the list: TEAD-luciferase reporter activity (compound concentration: 200 nM): inactive: -0.927; TEAD-luciferase reporter activity (compound concentration: 2 uM): inactive: -0.917; TEAD-luciferase reporter activity (compound concentration: 10 uM): inactive: 0.516
CC(C)[C@@H](CN1CC[C@@](C)(c2cccc(O)c2)[C@@H](C)C1)NC(=O)[C@H]1Cc2ccc(O)cc2CN1 [JDTic dihydrochloride] in the list: TEAD-luciferase reporter activity (compound concentration: 200 nM): inactive: -1.17; TEAD-luciferase reporter activity (compound concentration: 2 uM): inactive: 1.69; TEAD-luciferase reporter activity (compound concentration: 10 uM): active: 7.87
